According to PMC5778034:
These are yes or no findings as the source states them, for the method shown. Binding seen in cells or lysates may run through a third protein. A yes stands for co-enrichment or nearness to the bait. Other partners may have been found.

Sequences of proteins named here, by UniProt entry; tags and fusion partners are left off.
UniProt P31749: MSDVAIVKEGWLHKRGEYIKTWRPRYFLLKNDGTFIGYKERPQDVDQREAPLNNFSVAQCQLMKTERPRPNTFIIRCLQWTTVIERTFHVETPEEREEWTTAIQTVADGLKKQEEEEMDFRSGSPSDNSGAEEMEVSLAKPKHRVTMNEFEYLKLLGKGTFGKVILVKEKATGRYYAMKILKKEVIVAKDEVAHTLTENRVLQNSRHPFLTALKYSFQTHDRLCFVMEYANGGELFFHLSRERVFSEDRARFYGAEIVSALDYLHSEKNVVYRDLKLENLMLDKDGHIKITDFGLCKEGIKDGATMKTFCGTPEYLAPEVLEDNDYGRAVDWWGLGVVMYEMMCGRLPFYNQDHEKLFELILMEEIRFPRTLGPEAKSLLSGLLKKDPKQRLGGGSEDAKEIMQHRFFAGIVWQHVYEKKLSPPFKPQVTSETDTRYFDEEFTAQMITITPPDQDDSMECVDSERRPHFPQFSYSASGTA
UniProt P78527: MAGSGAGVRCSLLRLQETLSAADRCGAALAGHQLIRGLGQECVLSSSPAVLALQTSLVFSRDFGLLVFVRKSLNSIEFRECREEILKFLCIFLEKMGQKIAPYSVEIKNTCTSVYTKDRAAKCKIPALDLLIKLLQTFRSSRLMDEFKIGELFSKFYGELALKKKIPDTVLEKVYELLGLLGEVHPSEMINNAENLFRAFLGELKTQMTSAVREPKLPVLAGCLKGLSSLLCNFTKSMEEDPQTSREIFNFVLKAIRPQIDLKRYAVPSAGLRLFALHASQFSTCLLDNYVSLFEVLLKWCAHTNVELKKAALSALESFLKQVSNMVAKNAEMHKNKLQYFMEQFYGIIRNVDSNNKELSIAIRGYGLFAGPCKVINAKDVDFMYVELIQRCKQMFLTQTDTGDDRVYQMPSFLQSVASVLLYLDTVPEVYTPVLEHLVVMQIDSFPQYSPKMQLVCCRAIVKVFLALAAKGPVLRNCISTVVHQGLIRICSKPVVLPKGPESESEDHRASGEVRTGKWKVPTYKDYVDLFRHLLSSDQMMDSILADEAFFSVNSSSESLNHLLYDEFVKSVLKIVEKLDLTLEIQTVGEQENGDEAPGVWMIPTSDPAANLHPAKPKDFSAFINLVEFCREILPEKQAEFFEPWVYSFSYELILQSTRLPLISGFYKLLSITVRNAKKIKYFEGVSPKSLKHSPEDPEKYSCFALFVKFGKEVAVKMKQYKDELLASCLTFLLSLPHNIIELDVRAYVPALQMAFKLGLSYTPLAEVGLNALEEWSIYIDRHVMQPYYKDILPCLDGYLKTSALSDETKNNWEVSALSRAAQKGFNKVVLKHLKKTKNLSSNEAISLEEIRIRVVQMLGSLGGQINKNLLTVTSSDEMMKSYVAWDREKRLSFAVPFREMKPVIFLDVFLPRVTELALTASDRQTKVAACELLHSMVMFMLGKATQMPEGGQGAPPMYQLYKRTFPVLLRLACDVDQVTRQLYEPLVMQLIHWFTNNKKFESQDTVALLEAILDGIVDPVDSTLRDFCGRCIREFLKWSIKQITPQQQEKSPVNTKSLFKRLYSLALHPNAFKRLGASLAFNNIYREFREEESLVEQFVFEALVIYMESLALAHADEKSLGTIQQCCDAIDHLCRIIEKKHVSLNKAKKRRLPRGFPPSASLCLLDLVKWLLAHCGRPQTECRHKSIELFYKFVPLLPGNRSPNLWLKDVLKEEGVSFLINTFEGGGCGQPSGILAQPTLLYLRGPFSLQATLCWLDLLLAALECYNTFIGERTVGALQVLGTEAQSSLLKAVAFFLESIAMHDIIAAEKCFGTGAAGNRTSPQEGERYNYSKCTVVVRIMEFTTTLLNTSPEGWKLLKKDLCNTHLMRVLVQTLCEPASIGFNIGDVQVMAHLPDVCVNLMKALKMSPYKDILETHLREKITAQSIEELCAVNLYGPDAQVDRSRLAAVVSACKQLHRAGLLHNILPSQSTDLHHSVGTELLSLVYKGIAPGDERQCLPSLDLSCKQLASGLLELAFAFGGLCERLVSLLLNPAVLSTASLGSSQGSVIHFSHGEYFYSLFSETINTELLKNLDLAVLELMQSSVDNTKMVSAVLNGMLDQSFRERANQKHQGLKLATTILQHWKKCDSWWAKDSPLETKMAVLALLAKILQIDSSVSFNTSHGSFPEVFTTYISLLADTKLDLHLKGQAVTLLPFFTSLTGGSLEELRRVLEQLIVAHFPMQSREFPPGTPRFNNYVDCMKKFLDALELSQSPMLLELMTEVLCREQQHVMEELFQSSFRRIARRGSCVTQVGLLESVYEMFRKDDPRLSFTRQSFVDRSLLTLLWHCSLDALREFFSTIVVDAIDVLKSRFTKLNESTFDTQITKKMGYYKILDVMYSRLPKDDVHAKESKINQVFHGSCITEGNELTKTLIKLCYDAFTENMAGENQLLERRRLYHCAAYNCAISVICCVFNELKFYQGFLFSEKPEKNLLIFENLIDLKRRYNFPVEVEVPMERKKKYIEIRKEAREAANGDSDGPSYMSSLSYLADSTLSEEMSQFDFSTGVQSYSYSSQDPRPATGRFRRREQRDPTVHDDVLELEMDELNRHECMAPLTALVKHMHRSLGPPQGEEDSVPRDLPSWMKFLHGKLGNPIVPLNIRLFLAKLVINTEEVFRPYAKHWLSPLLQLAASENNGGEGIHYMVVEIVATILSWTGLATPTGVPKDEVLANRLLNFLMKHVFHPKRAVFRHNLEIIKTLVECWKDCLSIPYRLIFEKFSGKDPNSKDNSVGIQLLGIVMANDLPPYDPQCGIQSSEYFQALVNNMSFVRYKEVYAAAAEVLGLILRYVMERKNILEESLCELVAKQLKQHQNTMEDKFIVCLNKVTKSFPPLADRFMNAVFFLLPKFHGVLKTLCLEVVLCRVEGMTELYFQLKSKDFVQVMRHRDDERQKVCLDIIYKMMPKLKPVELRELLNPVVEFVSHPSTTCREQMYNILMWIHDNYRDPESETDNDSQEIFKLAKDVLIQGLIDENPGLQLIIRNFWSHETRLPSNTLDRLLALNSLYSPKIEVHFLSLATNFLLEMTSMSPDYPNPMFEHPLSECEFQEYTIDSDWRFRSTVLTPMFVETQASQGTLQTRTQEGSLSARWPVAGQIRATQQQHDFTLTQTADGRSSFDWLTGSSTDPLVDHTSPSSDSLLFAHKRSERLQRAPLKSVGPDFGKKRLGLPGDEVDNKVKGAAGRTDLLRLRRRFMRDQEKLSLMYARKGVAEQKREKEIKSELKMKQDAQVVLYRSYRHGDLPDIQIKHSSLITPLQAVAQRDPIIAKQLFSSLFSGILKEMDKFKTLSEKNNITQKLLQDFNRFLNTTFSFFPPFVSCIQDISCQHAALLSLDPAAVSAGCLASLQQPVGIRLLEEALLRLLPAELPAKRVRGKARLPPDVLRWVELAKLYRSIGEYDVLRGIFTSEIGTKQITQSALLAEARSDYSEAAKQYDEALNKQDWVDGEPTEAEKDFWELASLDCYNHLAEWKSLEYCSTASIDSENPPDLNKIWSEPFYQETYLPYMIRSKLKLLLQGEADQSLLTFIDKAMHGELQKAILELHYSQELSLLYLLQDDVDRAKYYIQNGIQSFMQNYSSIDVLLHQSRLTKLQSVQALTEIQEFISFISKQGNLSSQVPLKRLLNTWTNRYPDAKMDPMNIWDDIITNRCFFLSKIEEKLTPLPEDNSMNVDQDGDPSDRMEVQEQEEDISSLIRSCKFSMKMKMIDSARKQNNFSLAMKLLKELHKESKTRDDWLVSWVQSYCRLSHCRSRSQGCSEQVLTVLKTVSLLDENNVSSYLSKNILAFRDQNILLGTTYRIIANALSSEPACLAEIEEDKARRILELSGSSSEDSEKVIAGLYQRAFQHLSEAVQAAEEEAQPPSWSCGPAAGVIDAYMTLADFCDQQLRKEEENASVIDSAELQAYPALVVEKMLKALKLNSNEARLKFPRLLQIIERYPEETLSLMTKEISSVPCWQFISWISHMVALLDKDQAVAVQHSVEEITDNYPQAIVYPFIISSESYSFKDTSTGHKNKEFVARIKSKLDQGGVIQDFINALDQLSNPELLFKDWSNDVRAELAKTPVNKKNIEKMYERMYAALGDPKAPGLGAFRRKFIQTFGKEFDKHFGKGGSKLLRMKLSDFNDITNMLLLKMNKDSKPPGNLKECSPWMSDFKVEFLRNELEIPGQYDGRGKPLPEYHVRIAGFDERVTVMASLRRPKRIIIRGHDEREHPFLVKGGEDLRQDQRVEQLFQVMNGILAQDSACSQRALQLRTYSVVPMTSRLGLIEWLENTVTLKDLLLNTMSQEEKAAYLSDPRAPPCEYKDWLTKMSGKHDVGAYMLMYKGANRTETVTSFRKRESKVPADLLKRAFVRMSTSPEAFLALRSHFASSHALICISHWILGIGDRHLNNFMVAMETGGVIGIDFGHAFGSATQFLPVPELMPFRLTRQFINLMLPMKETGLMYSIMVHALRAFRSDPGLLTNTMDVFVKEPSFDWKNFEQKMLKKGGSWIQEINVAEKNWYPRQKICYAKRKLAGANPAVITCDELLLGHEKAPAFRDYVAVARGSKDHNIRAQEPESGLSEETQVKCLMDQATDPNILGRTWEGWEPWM
UniProt Q9Y5X1: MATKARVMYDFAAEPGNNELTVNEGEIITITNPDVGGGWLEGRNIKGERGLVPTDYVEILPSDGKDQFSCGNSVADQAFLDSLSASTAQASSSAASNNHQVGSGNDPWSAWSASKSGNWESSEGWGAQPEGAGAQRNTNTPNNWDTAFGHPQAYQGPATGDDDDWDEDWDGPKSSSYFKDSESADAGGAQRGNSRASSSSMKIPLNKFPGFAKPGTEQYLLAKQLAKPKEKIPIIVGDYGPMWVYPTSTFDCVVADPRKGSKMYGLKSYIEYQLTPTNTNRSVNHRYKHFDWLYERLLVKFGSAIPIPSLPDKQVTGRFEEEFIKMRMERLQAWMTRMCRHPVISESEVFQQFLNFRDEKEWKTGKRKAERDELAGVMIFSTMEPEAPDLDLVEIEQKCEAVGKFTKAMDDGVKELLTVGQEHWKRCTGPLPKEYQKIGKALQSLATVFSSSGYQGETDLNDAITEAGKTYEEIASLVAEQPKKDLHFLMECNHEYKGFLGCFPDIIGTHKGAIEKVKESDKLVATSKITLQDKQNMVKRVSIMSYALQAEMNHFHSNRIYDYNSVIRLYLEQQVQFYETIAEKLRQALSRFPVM
UniProt P10636: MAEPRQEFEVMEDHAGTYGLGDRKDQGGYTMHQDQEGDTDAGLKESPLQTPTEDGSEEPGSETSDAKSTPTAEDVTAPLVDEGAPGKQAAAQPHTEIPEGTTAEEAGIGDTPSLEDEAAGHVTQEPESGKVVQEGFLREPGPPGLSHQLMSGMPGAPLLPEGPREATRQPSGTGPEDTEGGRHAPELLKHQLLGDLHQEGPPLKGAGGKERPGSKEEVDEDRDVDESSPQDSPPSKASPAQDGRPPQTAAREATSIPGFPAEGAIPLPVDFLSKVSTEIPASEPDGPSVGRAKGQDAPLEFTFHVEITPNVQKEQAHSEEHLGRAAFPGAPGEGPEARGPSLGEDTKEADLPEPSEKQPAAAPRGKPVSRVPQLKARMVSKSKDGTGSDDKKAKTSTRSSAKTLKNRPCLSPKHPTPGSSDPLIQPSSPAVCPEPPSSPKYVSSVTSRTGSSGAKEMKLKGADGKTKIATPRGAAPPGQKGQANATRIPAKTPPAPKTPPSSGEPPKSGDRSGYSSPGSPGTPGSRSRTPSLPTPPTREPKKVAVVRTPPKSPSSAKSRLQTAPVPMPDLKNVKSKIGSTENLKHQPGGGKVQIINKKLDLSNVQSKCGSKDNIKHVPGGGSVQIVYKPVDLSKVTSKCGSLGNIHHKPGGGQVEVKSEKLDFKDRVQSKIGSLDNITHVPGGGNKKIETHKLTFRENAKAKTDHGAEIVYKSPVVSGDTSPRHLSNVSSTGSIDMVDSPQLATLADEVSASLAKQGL
UniProt P11940: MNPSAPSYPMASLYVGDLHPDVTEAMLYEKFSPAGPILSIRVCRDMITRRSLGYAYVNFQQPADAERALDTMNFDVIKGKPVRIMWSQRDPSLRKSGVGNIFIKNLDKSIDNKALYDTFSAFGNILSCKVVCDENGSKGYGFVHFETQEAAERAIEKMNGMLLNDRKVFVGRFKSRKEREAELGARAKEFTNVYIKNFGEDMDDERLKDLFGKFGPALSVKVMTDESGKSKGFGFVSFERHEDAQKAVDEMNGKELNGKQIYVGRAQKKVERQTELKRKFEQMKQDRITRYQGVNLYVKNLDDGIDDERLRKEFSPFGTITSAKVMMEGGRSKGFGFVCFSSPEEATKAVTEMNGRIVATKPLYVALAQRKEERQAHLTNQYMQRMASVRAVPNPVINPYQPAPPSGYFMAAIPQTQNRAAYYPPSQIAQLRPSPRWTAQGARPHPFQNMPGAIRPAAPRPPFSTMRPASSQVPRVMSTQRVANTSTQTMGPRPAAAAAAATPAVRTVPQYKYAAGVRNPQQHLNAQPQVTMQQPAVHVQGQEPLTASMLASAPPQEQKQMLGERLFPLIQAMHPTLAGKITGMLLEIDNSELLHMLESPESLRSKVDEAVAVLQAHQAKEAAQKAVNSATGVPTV

Target: Akt1 (PKBα) (human) (UniProt P31749)
Assay: affinity purification with mass spectrometry; SH-tagged Akt1 as bait; SILAC-labelled HEK293 cells arrested in G0 (serum starvation), G1/S (aphidicolin) and G2 (nocodazole) mixed 1:1:1; lysis in IP buffer (150 mM NaCl, 50 mM Tris-HCl pH 7.5, 1% NP-40); streptactin magnetic beads and anti-HA agarose in parallel at 4 °C, eluates pooled; LC-MS/MS, 1% G-FDR-fit, three replicates; hits of SH-tagged GFP subtracted

Molecule	binding
RBM3, the cold-inducible mRNA binding protein (protein, UniProt P98179 1-157) MSSEEGKLFVGGLNFNTDEQALEDHFSSFGPISEVVVVKDRETQRSRGFGFITFTNPEHASVAMRAMNGESLDGRQIRVDHAGKSARGTRGGGFGAHGRGRSYSRGGGDQGYGSGRYYDSRPGGYGYGYGRSRDYNGRNQGGYDRYSGGNYRDNYDN	binds
eukaryotic translation initiation factor 2A (EIF2A) (protein, UniProt Q9BY44 1-585) MAPSTPLLTVRGSEGLYMVNGPPHFTESTVFPRESGKNCKVCIFSKDGTLFAWGNGEKVNIISVTNKGLLHSFDLLKAVCLEFSPKNTVLATWQPYTTSKDGTAGIPNLQLYDVKTGTCLKSFIQKKMQNWCPSWSEDETLCARNVNNEVHFFENNNFNTIANKLHLQKINDFVLSPGPQPYKVAVYVPGSKGAPSFVRLYQYPNFAGPHAALANKSFFKADKVTMLWNKKATAVLVIASTDVDKTGASYYGEQTLHYIATNGESAVVQLPKNGPIYDVVWNSSSTEFCAVYGFMPAKATIFNLKCDPVFDFGTGPRNAAYYSPHGHILVLAGFGNLRGQMEVWDVKNYKLISKPVASDSTYFAWCPDGEHILTATCAPRLRVNNGYKIWHYTGSILHKYDVPSNAELWQVSWQPFLDGIFPAKTITYQAVPSEVPNEEPKVATAYRPPALRNKPITNSKLHEEEPPQNMKPQSGNDKPLSKTALKNQRKHEAKKAAKQEARSDKSPDLAPTPAPQSTPRNTVSQSISGDPEIDKKIKNLKKKLKAIEQLKEQAATGKQLEKNQLEKIQKETALLQELEDLELGI	binds
SARNP (protein, UniProt P82979 1-210) MATETVELHKLKLAELKQECLARGLETKGIKQDLIHRLQAYLEEHAEEEANEEDVLGDETEEEETKPIELPVKEEEPPEKTVDVAAEKKVVKITSEIPQTERMQKRAERFNVPVSLESKKAARAARFGISSVPTKGLSSDNKPMVNLDKLKERAQRFGLNVSSISRKSEDDEKLKKRKERFGIVTSSAGTGTTEDTEAKKRKRAERFGIA	binds
ANXA6 (protein, UniProt P08133 1-673) MAKPAQGAKYRGSIHDFPGFDPNQDAEALYTAMKGFGSDKEAILDIITSRSNRQRQEVCQSYKSLYGKDLIADLKYELTGKFERLIVGLMRPPAYCDAKEIKDAISGIGTDEKCLIEILASRTNEQMHQLVAAYKDAYERDLEADIIGDTSGHFQKMLVVLLQGTREEDDVVSEDLVQQDVQDLYEAGELKWGTDEAQFIYILGNRSKQHLRLVFDEYLKTTGKPIEASIRGELSGDFEKLMLAVVKCIRSTPEYFAERLFKAMKGLGTRDNTLIRIMVSRSELDMLDIREIFRTKYEKSLYSMIKNDTSGEYKKTLLKLSGGDDDAAGQFFPEAAQVAYQMWELSAVARVELKGTVRPANDFNPDADAKALRKAMKGLGTDEDTIIDIITHRSNVQRQQIRQTFKSHFGRDLMTDLKSEISGDLARLILGLMMPPAHYDAKQLKKAMEGAGTDEKALIEILATRTNAEIRAINEAYKEDYHKSLEDALSSDTSGHFRRILISLATGHREEGGENLDQAREDAQVAAEILEIADTPSGDKTSLETRFMTILCTRSYPHLRRVFQEFIKMTNYDVEHTIKKEMSGDVRDAFVAIVQSVKNKPLFFADKLYKSMKGAGTDEKTLTRIMVSRSEIDLLNIRREFIEKYDKSLHQAIEGDTSGDFLKALLALCGGED	binds
SMNDC1 (protein, UniProt O75940 1-238) MSEDLAKQLASYKAQLQQVEAALSGNGENEDLLKLKKDLQEVIELTKDLLSTQPSETLASSDSFASTQPTHSWKVGDKCMAVWSEDGQCYEAEIEEIDEENGTAAITFAGYGNAEVTPLLNLKPVEEGRKAKEDSGNKPMSKKEMIAQQREYKKKKALKKAQRIKELEQEREDQKVKWQQFNNRAYSKNKKGQVKRSIFASPESVTGKVGVGTCGIADKPMTQYQDTSKYNVRHLMPQ	binds

Other lines, results leading:

binding	Molecule
binds	NUCKS1 (protein, UniProt Q9H1E3 1-243) MSRPVRNRKVVDYSQFQESDDADEDYGRDSGPPTKKIRSSPREAKNKRRSGKNSQEDSEDSEDKDVKTKKDDSHSAEDSEDEKEDHKNVRQQRQAASKAASKQREMLMEDVGSEEEQEEEDEAPFQEKDSGSDEDFLMEDDDDSDYGSSKKKNKKMVKKSKPERKEKKMPKPRLKATVTPSPVKGKGKVGRPTASKASKEKTPSPKEEDEEPESPPEKKTSTSPPPEKSGDEGSEDEAPSGED
binds	API5 (protein, UniProt Q9BZZ5 1-524) MPTVEELYRNYGILADATEQVGQHKDAYQVILDGVKGGTKEKRLAAQFIPKFFKHFPELADSAINAQLDLCEDEDVSIRRQAIKELPQFATGENLPRVADILTQLLQTDDSAEFNLVNNALLSIFKMDAKGTLGGLFSQILQGEDIVRERAIKFLSTKLKTLPDEVLTKEVEELILTESKKVLEDVTGEEFVLFMKILSGLKSLQTVSGRQQLVELVAEQADLEQTFNPSDPDCVDRLLQCTRQAVPLFSKNVHSTRFVTYFCEQVLPNLGTLTTPVEGLDIQLEVLKLLAEMSSFCGDMEKLETNLRKLFDKLLEYMPLPPEEAENGENAGNEEPKLQFSYVECLLYSFHQLGRKLPDFLTAKLNAEKLKDFKIRLQYFARGLQVYIRQLRLALQGKTGEALKTEENKIKVVALKITNNINVLIKDLFHIPPSYKSTVTLSWKPVQKVEIGQKRASEDTTSGSPPKKSSAGPKRDARQIYNPPSGKYSSNLGNFNYEQRGAFRGSRGGRGWGTRGNRSRGRLY
binds	HNRNPH3 (protein, UniProt P31942 1-346) MDWVMKHNGPNDASDGTVRLRGLPFGCSKEEIVQFFQGLEIVPNGITLTMDYQGRSTGEAFVQFASKEIAENALGKHKERIGHRYIEIFRSSRSEIKGFYDPPRRLLGQRPGPYDRPIGGRGGYYGAGRGSMYDRMRRGGDGYDGGYGGFDDYGGYNNYGYGNDGFDDRMRDGRGMGGHGYGGAGDASSGFHGGHFVHMRGLPFRATENDIANFFSPLNPIRVHIDIGADGRATGEADVEFVTHEDAVAAMSKDKNNMQHRYIELFLNSTPGGGSGMGGSGMGGYGRDGMDNQGGYGSVGRMGMGNNYSGGYGTPDGLGGYGRGGGGSGGYYGQGGMSGGGWRGMY

Target: Akt1 (PKBα) (human) (UniProt P31749)
Assay: as above
Remark: another data set of the same source

Molecule	binding
TUBB4B (from UniProt P68371 1-445)	binds
VCP (from UniProt P55072 1-806)	binds
Epiplakin 1 (from UniProt P58107 1-5088)	binds
YWHAE (from UniProt P62258 1-255)	binds
PRKDC (from UniProt P78527 1-4128)	binds
NOTCH2 (from UniProt Q04721 26-2471)	binds
HSPA5 (from UniProt P11021 19-654)	binds
CORO1C (from UniProt Q9ULV4 1-474)	binds
SH3PX1 (from UniProt Q9Y5X1 1-595)	binds
MAPT (from UniProt P10636 1-758)	binds
TUBA1B (from UniProt P68363 1-451)	binds
CCNB1 (from UniProt P14635 1-433)	binds

More lines, now with the values ahead:

binding	Molecule
binds	TUBB (from UniProt P07437 1-444)
binds	IQGAP1 (from UniProt P46940 1-1657)
binds	NPM1 (from UniProt P06748 1-294)
binds	Karyopherin Beta 1 (KPNB1) (from UniProt Q14974 1-876)
binds	BUB3 (from UniProt O43684 1-328)
binds	MYH9 (from UniProt P35579 1-1960)
binds	SPTBN2 (from UniProt O15020 1-2390)
binds	Drebrin 1 (DBN1) (from UniProt Q16643 1-649)
binds	PABPPC1 (from UniProt P11940 1-636)
